Reference: PMC6307200
No constants are given. Whether binding was seen depends on the method and setting. In cells and extracts the contact can be indirect. Some results given as binding are weak or reduced against the parent protein; the word gives no strength.

Protein sequences, listed by entry. Tags and fused reporters are not part of them.
UniProt Q16666: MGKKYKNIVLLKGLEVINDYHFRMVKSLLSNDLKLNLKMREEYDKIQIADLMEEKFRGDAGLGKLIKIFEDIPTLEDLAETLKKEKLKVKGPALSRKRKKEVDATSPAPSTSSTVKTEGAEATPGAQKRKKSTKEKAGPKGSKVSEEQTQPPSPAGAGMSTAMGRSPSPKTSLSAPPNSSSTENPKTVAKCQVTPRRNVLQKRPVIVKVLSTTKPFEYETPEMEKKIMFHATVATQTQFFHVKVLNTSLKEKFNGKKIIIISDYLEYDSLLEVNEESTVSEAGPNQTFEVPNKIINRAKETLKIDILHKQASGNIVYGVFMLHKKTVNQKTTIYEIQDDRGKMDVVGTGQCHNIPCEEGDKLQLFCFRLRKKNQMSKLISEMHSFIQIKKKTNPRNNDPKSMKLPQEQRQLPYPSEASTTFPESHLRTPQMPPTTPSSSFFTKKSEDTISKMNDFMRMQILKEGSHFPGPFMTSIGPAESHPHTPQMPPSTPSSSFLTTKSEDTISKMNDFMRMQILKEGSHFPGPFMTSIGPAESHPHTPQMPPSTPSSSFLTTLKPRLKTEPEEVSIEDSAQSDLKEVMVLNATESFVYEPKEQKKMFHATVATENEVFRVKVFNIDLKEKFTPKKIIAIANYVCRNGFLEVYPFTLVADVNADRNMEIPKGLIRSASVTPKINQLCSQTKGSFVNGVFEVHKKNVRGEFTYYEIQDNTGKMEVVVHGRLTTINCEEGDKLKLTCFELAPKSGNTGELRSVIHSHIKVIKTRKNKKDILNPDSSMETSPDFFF

Biological target: T1, ADAR1 (human (endogenous in B-EBV cells)) (UniProt P55265)
T1 sequence: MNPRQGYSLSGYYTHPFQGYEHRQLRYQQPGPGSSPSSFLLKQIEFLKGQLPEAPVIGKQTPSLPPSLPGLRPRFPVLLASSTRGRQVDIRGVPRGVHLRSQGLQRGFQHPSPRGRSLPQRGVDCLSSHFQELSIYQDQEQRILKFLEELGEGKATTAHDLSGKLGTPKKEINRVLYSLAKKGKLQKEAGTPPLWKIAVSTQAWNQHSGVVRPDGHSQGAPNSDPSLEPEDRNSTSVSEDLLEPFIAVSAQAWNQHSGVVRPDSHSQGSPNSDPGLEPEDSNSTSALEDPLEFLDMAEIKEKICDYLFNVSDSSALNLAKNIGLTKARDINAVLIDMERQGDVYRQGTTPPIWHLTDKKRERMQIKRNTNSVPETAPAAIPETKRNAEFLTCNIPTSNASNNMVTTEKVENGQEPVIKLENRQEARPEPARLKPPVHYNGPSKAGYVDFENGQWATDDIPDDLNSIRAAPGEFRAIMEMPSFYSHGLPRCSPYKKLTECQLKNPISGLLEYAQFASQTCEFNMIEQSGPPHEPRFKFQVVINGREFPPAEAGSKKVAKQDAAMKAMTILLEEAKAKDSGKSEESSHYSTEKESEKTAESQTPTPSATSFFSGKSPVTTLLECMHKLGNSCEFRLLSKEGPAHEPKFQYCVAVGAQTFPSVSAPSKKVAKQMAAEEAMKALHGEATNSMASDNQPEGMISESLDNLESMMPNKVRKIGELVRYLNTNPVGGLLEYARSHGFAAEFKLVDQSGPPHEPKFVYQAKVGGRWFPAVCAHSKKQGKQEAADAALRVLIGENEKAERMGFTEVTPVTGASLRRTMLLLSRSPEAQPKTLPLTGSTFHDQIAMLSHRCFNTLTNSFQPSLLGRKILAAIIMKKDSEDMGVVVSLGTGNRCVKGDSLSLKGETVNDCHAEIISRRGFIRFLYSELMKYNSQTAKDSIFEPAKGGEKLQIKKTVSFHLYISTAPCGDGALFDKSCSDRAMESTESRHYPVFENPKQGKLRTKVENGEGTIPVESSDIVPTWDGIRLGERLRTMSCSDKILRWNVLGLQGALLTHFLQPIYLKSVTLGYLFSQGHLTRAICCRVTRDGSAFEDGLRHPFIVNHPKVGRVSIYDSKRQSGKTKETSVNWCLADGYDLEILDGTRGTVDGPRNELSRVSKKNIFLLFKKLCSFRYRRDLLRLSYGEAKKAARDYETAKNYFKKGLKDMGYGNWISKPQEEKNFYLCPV
Assay: co-IP; B-EBV cells lysed by sonication in Tris-HCl 50 mM pH 7.4, NaCl 300 mM, 1% Triton X-100; extracts on Protein G Dynabeads coupled with mouse anti-ADAR1, 2 h at 4 °C, 5 washes; western blot for IFI16 and RPA70; IgG precipitate as control

binding: binds weakly
Substance: IFI16, interferon gamma inducible protein 16 (from UniProt Q16666 1-785)
